Laboratory results taken from the supplement of paper PMC4604168 (melanoma cell lines).
This is one part of the list. Single values are uncertain, as repeats are few or missing.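 The apoptosis fraction was the count of cleaved-PARP antibody-stained nuclei relative to all DNA-stained nuclei, imaged in 1,536-well plates. Screening doses were set so most cells survived, and baseline and induced cleaved-PARP levels vary greatly across cell lines.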

tested on: SkMel2; assay: cleaved PARP positive nuclei fraction relative to DMSO control; melanoma cells; higher = more apoptosis; conditions: library dose: low library concentration; 72 h

| SMILES | cleaved PARP positive nuclei fraction [%] |
| --- | --- |
| CN(c1ncccc1CNc1nc(Nc2ccc3c(c2)CC(=O)N3)ncc1C(F)(F)F)S(C)(=O)=O + Oc1cc(-c2nc(-c3ccccc3)[nH]c2-c2ccncc2)ccc1Cl [L779450] (first compound 0.08 µM, partner dose 0.2 µM) | 220 |
| NC(=O)c1ccc(N(C(N)=O)c2c(F)cccc2F)nc1-c1ccc(F)cc1F + COc1ccc(Cl)c(Nc2nc3ccccc3nc2NS(=O)(=O)c2cccc(NC(=O)C(C)(C)N)c2)c1 [XL147] (first compound 0.4 µM, partner dose 0.8 µM) | 229 |
| CN(c1ncccc1CNc1nc(Nc2ccc3c(c2)CC(=O)N3)ncc1C(F)(F)F)S(C)(=O)=O + Cc1cc(Nc2cc(N3CCN(C)CC3)nc(/C=C/c3ccccc3)n2)n[nH]1 [ENMD2076] (first compound 0.08 µM, partner dose 0.04 µM) | 76.4 |
| CCCCCCCCc1ccc(CCC(N)(CO)CO)cc1 [fingolimod] + c1cc(-c2cnn3cc(-c4ccc(OCCN5CCCCC5)cc4)cnc23)ccn1 [Dorsomorphin] (first compound 2 µM, partner dose 0.4 µM) | 42.8 |
| CS(=O)(=O)c1ccc(C(=O)Nc2ccc(Cl)c(-c3ccccn3)c2)c(Cl)c1 [vismodegib] + CC(=O)O[C@@]12CO[C@@H]1C[C@H](O)[C@@]1(C)C(=O)[C@H](O)C3=C(C)[C@@H](OC(=O)[C@H](O)[C@@H](NC(=O)OC(C)(C)C)c4ccccc4)C[C@@](O)([C@@H](OC(=O)c4ccccc4)[C@H]21)C3(C)C [Docetaxel] (first compound 1 µM, partner dose 0.0001 µM) | 586 |
